# No constants are given. Whether binding was seen depends on the method and setting. Binding seen in cells or lysates may run through a third protein. Some binding calls cover weakened binding; strength is not graded here.
# B1: full-length WzzBSF (natural protein)
# chain: MRVENNNVSGQNHDPEQIDLIDLLVQLWRGKMTIIISVIVAIALAIGYLAVAKEKWTSTAIITQPDVGQIAGYNNAMNVIYGQAAPKVSDLQETLIGRFSSAFSALAETLDNQEEPEKLTIEPSVKNQQLPLTVSYVGQTAEGAQMKLAQYIQQVDDKVNQELEKDLKDNIALGRKNLQDSLRTQEVVAQEQKDLRIRQIQEALQYANQAQVTKPQVQQTEDVTQDTLFLLGSEALESMIKHEATRPLVFSPNYYQTRQNLLDIEKLKFDDLDIHAYRYVMKPTLPIRRDSPKKAITLILAVLLGGMVGAGIVLGRNALRNYNAK
# notes: WzzBSF of Shigella flexneri, wzzSF open reading frame in pRMCD30; ~36 kDa; also called wild-type WzzBSF; source: S. flexneri RMA4053 (wzz::kan), from plasmid pRMCD30 (pQE30-based), IPTG-induced, in whole cells
# Target: full-length WzzBSF (Shigella flexneri) (UniProt P37792)
# Assay: cross-linking; whole S. flexneri cells, 0.5% formaldehyde, 25°C, 1 h, 10 mM potassium phosphate/10 mM Tris pH 6.8; samples heated at 60°C, SDS-PAGE, immunoblot with anti-WzzBSF
binder,measurement,value
B1,binding,binds

# From PMC4574919, “Structural and Biochemical Analysis of a Single Amino-Acid Mutant of WzzBSF That Alters Lipopolysaccharide O-Antigen Chain Length in Shigella flexneri” (PLoS ONE, 2015)
